# According to the supplement of paper PMC12819154, “High-throughput peptide-centric local stability assay extends protein–ligand identification to membrane proteins, tissues and bacteria” (Nature Structural & Molecular Biology, 2025):
# By UniProt entry, the sequences of proteins in these tests, tags left out. Where a name states a change or a piece, a line headed by the entry shows the natural chain unless it says otherwise.
# UniProt Q91YI0, whole entry: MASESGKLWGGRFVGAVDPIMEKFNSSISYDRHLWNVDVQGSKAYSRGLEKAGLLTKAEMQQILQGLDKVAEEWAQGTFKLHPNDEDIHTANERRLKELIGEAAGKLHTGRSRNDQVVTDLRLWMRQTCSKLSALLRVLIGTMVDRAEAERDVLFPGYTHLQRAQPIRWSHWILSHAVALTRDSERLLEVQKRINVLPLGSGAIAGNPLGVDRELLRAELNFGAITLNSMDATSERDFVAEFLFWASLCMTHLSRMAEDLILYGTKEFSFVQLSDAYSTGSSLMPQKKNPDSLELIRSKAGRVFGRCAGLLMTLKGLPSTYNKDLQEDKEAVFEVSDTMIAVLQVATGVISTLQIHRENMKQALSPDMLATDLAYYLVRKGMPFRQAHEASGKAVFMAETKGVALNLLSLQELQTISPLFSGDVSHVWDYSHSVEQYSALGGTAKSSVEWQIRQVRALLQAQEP
# UniProt Q91WG3: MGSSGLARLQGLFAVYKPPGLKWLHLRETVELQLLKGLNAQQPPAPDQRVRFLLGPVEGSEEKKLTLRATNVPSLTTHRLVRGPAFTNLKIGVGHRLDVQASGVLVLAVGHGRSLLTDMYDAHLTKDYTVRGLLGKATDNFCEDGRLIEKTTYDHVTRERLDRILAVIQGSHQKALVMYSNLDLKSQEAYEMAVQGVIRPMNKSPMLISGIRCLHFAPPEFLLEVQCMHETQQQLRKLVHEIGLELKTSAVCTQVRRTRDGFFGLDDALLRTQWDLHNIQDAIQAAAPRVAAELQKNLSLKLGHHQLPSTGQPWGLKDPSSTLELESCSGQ
# UniProt Q91Z58: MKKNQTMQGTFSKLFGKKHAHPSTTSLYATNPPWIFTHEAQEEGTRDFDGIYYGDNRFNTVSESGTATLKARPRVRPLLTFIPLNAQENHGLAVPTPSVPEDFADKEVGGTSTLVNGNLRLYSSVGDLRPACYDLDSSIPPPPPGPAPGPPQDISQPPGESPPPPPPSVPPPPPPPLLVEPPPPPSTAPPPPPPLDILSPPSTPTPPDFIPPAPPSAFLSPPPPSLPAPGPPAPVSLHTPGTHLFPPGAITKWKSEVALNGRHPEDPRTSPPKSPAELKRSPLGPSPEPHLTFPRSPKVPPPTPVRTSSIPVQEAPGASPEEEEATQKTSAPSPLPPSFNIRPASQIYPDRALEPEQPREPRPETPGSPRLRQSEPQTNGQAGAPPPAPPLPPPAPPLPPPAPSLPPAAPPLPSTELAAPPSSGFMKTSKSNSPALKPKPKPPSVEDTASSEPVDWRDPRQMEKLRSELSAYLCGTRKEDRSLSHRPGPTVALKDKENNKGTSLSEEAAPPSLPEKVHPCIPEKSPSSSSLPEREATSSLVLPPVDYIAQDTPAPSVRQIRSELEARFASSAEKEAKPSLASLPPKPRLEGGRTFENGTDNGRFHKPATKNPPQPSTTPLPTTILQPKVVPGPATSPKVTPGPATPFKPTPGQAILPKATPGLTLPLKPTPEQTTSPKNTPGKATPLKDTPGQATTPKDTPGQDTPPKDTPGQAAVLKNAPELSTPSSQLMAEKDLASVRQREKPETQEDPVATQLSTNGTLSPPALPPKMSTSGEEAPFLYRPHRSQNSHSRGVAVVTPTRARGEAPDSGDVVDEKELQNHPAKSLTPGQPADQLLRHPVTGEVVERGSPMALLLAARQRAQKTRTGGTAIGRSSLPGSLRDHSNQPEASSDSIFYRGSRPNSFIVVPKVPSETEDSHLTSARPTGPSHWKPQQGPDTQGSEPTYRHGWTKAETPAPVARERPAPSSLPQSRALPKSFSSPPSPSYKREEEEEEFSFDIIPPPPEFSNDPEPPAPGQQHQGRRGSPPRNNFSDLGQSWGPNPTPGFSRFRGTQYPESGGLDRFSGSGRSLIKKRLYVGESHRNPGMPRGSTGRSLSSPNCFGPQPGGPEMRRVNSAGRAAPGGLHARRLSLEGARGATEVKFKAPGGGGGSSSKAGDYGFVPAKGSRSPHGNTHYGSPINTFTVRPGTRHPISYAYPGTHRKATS
# UniProt Q91ZA3: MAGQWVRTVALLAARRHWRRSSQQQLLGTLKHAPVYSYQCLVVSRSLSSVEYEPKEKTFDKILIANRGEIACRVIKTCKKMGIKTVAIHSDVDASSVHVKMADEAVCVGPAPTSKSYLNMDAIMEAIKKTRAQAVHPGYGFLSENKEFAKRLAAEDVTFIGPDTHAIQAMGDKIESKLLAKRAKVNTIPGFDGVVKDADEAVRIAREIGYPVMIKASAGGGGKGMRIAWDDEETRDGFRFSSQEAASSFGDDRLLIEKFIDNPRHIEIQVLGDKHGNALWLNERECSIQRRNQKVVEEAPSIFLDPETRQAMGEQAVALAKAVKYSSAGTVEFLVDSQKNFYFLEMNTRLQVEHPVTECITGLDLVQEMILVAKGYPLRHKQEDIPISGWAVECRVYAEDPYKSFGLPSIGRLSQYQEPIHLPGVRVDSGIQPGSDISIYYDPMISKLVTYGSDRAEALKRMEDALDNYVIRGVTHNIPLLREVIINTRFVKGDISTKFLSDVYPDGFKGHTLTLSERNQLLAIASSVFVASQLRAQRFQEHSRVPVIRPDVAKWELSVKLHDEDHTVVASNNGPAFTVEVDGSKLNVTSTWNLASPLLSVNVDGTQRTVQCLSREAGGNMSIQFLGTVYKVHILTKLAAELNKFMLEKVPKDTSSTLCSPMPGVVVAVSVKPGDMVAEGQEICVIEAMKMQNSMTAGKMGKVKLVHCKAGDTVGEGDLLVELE
# UniProt Q91XS1: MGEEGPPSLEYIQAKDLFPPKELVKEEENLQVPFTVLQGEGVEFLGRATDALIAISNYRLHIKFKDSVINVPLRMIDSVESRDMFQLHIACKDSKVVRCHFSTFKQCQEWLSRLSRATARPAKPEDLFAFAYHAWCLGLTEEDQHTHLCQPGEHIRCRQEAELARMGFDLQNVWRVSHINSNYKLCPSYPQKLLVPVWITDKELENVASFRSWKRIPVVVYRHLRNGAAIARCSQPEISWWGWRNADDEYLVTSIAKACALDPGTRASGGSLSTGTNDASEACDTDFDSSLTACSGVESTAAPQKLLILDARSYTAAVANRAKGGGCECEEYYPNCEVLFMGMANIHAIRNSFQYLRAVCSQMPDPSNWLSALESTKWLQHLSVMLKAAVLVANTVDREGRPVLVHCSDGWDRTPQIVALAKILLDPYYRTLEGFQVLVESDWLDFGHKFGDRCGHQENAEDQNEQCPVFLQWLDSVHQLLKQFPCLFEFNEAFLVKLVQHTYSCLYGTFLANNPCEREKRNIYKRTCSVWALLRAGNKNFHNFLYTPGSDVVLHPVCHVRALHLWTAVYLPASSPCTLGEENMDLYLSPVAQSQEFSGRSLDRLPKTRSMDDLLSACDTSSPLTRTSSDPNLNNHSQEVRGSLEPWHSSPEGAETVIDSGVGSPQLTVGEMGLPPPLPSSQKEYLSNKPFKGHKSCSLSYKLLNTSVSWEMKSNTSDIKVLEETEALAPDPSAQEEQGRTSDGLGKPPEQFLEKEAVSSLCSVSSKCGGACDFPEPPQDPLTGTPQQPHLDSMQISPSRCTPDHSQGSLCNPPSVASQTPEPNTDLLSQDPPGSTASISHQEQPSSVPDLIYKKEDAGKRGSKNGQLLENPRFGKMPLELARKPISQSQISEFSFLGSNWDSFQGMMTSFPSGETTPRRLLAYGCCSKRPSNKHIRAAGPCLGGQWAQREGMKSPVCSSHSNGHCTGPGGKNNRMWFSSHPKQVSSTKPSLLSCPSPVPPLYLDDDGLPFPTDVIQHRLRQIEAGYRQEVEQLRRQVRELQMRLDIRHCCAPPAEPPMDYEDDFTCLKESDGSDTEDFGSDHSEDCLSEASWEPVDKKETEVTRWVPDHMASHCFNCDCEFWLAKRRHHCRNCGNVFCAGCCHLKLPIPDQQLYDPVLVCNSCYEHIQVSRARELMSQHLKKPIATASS
# UniProt Q8VIJ8: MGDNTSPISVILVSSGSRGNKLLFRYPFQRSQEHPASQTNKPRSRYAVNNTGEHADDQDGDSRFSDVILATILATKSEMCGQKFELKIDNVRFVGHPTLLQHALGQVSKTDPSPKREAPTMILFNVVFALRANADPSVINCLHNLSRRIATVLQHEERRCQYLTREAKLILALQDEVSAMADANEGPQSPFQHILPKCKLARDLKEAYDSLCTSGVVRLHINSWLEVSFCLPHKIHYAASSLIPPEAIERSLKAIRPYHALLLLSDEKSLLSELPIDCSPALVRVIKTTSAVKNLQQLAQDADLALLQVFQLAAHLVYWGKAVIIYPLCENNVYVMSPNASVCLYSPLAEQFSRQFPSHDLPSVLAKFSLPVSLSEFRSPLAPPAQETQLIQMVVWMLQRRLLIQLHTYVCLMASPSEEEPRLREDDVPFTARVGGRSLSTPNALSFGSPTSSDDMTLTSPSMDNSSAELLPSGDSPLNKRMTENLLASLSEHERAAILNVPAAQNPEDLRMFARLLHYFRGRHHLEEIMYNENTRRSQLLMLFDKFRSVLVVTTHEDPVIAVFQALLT
# UniProt Q91VH6: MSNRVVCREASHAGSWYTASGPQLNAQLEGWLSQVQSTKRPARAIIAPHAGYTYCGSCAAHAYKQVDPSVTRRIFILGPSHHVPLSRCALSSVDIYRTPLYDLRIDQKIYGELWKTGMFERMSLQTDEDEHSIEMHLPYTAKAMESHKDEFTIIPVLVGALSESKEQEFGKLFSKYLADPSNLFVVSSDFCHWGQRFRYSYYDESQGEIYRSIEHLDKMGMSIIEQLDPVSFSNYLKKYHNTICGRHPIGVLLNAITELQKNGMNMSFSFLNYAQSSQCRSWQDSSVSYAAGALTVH
# UniProt Q8VI75: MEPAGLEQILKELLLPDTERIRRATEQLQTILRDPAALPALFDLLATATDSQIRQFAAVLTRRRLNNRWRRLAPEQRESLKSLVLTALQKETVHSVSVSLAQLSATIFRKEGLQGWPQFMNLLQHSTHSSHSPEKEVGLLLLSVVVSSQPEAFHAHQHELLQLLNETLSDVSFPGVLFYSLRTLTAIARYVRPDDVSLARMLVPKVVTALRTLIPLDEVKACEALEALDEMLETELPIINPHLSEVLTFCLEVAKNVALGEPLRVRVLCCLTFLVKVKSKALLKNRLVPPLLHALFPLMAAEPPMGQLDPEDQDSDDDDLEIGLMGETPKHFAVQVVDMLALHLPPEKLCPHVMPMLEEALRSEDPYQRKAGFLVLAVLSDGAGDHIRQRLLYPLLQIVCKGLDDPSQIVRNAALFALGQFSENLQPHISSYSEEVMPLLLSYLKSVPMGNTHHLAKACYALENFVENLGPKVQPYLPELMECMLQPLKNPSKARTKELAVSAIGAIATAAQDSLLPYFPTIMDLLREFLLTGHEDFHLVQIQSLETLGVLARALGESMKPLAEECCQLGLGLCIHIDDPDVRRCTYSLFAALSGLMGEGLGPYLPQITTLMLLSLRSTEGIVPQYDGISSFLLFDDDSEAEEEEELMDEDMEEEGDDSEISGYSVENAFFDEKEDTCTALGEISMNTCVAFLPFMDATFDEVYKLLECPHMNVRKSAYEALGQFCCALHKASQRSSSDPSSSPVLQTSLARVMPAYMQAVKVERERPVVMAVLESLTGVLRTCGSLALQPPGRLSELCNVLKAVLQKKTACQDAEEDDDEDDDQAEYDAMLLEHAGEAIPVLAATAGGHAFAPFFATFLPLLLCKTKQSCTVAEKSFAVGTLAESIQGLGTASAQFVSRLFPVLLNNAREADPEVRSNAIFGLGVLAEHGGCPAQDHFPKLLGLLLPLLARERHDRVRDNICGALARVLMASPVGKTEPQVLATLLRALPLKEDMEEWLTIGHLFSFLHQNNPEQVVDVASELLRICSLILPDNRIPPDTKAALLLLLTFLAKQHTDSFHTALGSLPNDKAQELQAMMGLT
# UniProt Q91WJ7: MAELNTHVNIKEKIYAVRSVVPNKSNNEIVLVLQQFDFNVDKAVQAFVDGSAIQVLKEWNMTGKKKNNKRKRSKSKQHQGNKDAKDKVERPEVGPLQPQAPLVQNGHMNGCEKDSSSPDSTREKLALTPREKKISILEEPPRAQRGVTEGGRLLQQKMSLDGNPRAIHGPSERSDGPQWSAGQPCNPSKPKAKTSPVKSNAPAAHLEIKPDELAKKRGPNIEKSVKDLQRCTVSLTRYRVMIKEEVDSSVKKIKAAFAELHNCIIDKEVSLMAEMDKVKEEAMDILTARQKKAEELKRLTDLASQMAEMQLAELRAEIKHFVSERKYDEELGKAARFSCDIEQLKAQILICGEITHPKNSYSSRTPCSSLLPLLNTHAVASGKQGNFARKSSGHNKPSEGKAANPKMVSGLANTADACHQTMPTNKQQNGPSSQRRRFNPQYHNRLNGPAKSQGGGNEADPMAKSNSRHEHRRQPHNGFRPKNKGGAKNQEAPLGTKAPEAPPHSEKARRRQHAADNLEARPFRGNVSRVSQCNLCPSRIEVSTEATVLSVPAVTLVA
# UniProt Q91X96: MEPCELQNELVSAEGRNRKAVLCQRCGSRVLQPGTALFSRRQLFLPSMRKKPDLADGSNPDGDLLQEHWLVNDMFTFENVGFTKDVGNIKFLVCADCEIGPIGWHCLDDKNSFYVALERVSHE
# The list shows a part of the results. Most values lie at the level of the controls, where differences are scatter.
# Compound: CN[C@@H]1C[C@H]2O[C@@](C)([C@@H]1OC)n1c3ccccc3c3c4c(c5c6ccccc6n2c5c31)C(=O)NC4 [staurosporine]
# Assay: log2 fold change of tryptic peptide abundance, ligand vs vehicle (limited proteolysis) (log2 ratio); higher = more trypsin-susceptible (destabilized)
# Conditions: ligand concentration: 20 uM; sample: mouse liver crude lysate; replicate design: treated separately
row,Target,log2 fold change
1,"UniProt Q8VHK1 (peptide sequence: AFSYLAGSPAAPPDPPRPK, peptide start residue: 776)",-0.22
2,"UniProt Q91X91 (peptide sequence: VAEVKGPAHHLLLGER, peptide start residue: 87)",-0.339
3,"UniProt Q91YI0 (peptide sequence: WSHWILSHAVALTR, peptide start residue: 169)",-0.389
4,"UniProt Q91WG3 (peptide sequence: ATNVPSLTTHR, peptide start residue: 69)",0.229
5,"UniProt Q91V87 (peptide sequence: TIHSGWSR, peptide start residue: 65)",0.0839
6,"UniProt Q8VIK5 (peptide sequence: SYSCSYSHR, peptide start residue: 885)",0.399
7,"UniProt Q91XB0 (peptide sequence: AELEVQGR, peptide start residue: 90)",-0.118
8,"UniProt Q91VH1 (peptide sequence: GSAGAQGNGAPSGNR, peptide start residue: 6)",-0.606
9,"UniProt Q91Z58 (peptide sequence: ELQNHPAK, peptide start residue: 818)",0.599
10,"UniProt Q91ZA3 (peptide sequence: VPVIRPDVAKWELSVK, peptide start residue: 545)",-0.43
11,"UniProt Q91XS1 (peptide sequence: EAVSSLCSVSSK, peptide start residue: 756)",0.0512
12,"UniProt Q8VIJ8 (peptide sequence: MTENLLASLSEHER, peptide start residue: 482)",-0.495
13,"UniProt Q91VL8 (peptide sequence: KFGAQNVAR, peptide start residue: 378)",-0.297
14,"UniProt Q91WG8 (peptide sequence: LAHYHVCCTR, peptide start residue: 153)",0.124
15,"UniProt Q91VH6 (peptide sequence: IFILGPSHHVPLSR, peptide start residue: 74)",0.192
16,"UniProt Q91YP1 (peptide sequence: AKHTHETQAIPESSTK, peptide start residue: 265)",0.251

# Three entries from above, with bars between the fields:
row | Target | log2 fold change
6 | UniProt Q8VIK5 (peptide sequence: SYSCSYSHR, peptide start residue: 885) | 0.399
7 | UniProt Q91XB0 (peptide sequence: AELEVQGR, peptide start residue: 90) | -0.118
8 | UniProt Q91VH1 (peptide sequence: GSAGAQGNGAPSGNR, peptide start residue: 6) | -0.606

# The list continues.

row,Target,log2 fold change
1,"UniProt Q91VE6 (peptide sequence: ALTQIQGR, peptide start residue: 25)",-0.149
2,"UniProt Q8VI75 (peptide sequence: TEPQVLATLLR, peptide start residue: 978)",-0.375
3,"UniProt Q91WF7 (peptide sequence: FVQLGQSQHKQDR, peptide start residue: 821)",0.557
4,"UniProt Q91Z49 (peptide sequence: TAVPSFLTKR, peptide start residue: 252)",0.313
5,"UniProt Q91Z22 (peptide sequence: SIDEHDAII, peptide start residue: 187)",-0.0406
6,"UniProt Q91XL9 (peptide sequence: CVLNFKPCGLFGK, peptide start residue: 739)",0.374
7,"UniProt Q91YU8 (peptide sequence: LLQEKFPNMSR, peptide start residue: 213)",-0.197
8,"UniProt Q8VHQ4 (peptide sequence: SIRPPQSPPQNCSR, peptide start residue: 262)",0.0708
9,"UniProt Q91YP2 (peptide sequence: WDLSPEQIR, peptide start residue: 50)",-0.523
10,"UniProt Q91W45 (peptide sequence: CKEDQGLNGHEEK, peptide start residue: 28)",-0.215
11,"UniProt Q91WP6 (peptide sequence: MIDELHLPK, peptide start residue: 305)",0.152
12,"UniProt Q91WJ7 (peptide sequence: RFNPQYHNRLNGPAK, peptide start residue: 437)",0.117
13,"UniProt Q91X96 (peptide sequence: KAVLCQR, peptide start residue: 19)",0.164
14,"UniProt Q91XU0 (peptide sequence: SHILYDR, peptide start residue: 483)",-0.103
15,"UniProt Q91VX2 (peptide sequence: ESTAGDGPSTVSR, peptide start residue: 468)",0.0799
